According to paper PMC11319797:
Construct, isoform or probe ends are uncertain for at least one entry. For some of these results: Where cells or extracts were used, other partners may take part. For some of these results: No signal at the amounts used counts as a negative. For some of these results: Where a protein sequence is shown, tags need not be part of it.

Legend:
[1] = biological target: T1, DiPRO1 (ZNF555), HA-tagged (Homo sapiens) (UniProt Q8NEP9); test: EMSA; conditions: nuclear extract, complexes suppressed by anti-HA; 20 mM HEPES pH 7.6, 40 mM NaCl, 5 mM MgCl2, 0.5 mM ZnSO4, 0.1 mM EDTA, 4% Ficoll, 1 ug poly(dI-dC), 100-200 fmol DNA, 5-6 ug nuclear extract in 20 ul, on ice 30 min; protein in an extract; label: Klenow end label
T1 sequence (looked up, limits assumed): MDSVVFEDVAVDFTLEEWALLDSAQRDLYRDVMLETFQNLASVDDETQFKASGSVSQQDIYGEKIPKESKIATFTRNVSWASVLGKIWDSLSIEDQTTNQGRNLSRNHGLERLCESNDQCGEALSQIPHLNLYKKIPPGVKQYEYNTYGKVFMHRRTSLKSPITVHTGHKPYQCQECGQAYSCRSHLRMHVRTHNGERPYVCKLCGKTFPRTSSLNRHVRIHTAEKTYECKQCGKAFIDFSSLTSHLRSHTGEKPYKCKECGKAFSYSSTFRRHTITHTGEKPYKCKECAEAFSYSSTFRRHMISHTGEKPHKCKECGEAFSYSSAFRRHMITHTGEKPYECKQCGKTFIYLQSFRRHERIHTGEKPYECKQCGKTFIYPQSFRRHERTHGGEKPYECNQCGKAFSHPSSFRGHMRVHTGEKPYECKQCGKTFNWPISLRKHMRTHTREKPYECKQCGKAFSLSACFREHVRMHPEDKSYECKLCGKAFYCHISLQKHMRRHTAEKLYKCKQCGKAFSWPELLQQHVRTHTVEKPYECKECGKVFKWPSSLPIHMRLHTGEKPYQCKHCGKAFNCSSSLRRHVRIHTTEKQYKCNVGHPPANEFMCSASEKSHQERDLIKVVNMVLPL

SIX1 = test: EMSA; conditions: added to pDiPRO1-RMS extract, BS4 forms, DiPRO1 BS1/2 weakened; 20 mM HEPES pH 7.6, 40 mM NaCl, 5 mM MgCl2, 0.5 mM ZnSO4, 0.1 mM EDTA, 4% Ficoll, 1 ug poly(dI-dC), 100-200 fmol DNA, 5-6 ug nuclear extract in 20 ul, on ice 30 min; protein translated in vitro; label: Klenow end label
[2] = biological target: T1, DiPRO1 (ZNF555), HA-tagged (Homo sapiens); test: competition with a labelled probe; conditions: 300-fold excess unlabeled, 20 mM HEPES pH 7.6, 40 mM NaCl, 5 mM MgCl2, 0.5 mM ZnSO4, 0.1 mM EDTA, 4% Ficoll, 1 ug poly(dI-dC), 100-200 fmol DNA, 5-6 ug nuclear extract in 20 ul, on ice 30 min, protein in an extract, label: unlabeled competitor

## GAATGTCAGGGGCTTCAGGTTTCCCTAAATA (double strand) [Aldolase A MEF3 site]
[1]
  binding result: binds
SIX1
  binding result: binds

## GCGCCTGGCCTAGGGTCCCTTTT (double strand) [TRAF1 site]
[2]; did not compete
  binding result: no binding

## GAGAAAGGCTGGCTTCCCTCCATG (double strand) [TNFSF9 site]
[2]; considerably reduced DiPRO1 complexes
  binding result: binds
